Here are results for 22 molecules from PubChem BioAssay AID330 (DTP/NCI, 2004).

The list does not hold the whole screen: it gathers tests that were run many times, whatever their T/C, doses with no T/C, and many T/C values between a quarter and a half above the control. Other doses and runs of a compound stand elsewhere. T/C is the treated group as % of the vehicle group. Some entries give survivors of the animals treated and no T/C: the source files T/C as zero there, which appears to mark a toxic dose or a test without result, not a measured value. Some doses without a T/C left all or most animals alive at the check, yet need not have been tolerated: the source hardly ever lists a survival T/C far under the control, and the zero likely stands for such cases as well. Survivors were counted at the toxicity check, usually on the fifth day, unless a day is given; later deaths do not show. Schedule codes are those of the source, taken here to give the interval after Q, in days (D) or hours (H), and the number of doses after X. Some doses were run more than once; the results are listed from low to high. Where survival is the endpoint, this PubChem deposit counts one and a half times the control or more as active, and values a quarter to a half above the control carry no call in these data; other NCI protocols may use other cut-offs. Some T/C values are followed by the survivors on the day toxicity was checked, most often the fifth; without a count, all were alive then.

The assay concerns P388 leukemia ip, CD2F1 mice, survival T/C. The experiment in a line: NCI In Vivo Anticancer Drug Screen. Data for tumor model P388 Leukemia (intraperitoneal) in CD2F1 (CDF1) mice. Particulars: T/C endpoint: median survival time, higher T/C = longer survival.
Setting [1] is: dose: 240.0 mg/kg/injection, schedule: Q01DX005 (ip), vehicle: saline with Tween-80.
[2] abbreviates: dose: 50.0 mg/kg/injection, schedule: Q01DX005 (ip), vehicle: Klucel (hydroxypropylcellulose) (HPC).
Setting [3] is: dose: 100.0 mg/kg/injection, schedule: Q01DX005 (ip), vehicle: Klucel (hydroxypropylcellulose) (HPC).
The mark [4] stands for this setting: dose: 200.0 mg/kg/injection, schedule: Q01DX005 (ip), vehicle: Klucel (hydroxypropylcellulose) (HPC).
Where [5] appears, read: dose: 200.0 mg/kg/injection, schedule: Q01DX009 (ip), vehicle: Klucel (hydroxypropylcellulose) (HPC).
The mark [6] stands for this setting: dose: 25.0 mg/kg/injection, schedule: Q01DX009 (ip), vehicle: saline.
Setting [7] is: dose: 100.0 mg/kg/injection, schedule: Q01DX009 (ip), vehicle: saline.
The mark [8] stands for this setting: dose: 100.0 mg/kg/injection, schedule: Q01DX005 (ip), vehicle: saline with Tween-80.

Consider `COc1nc(NC2OC(CO)C(O)C2O)cc(=O)n1C` (centres undefined), for which, under setting [1], the survivor count is 5 of 6.

Take `Cc1c[nH]c2nc(C)n(-c3ccc(Cl)cc3)c(=N)c12`: the survivor count is, setting by setting: under setting [2], 3 of 6; under setting [3], 0 of 6; under setting [4], 0 of 6.

For the molecule `Brc1ccc(C2=NOP(c3ccccc3)(c3ccccc3)(c3ccccc3)C2)cc1`, the survivor count under setting [5] is 6 of 6.

Take `NC(=S)c1cccc(-c2ccccn2)n1`: the survivor count (dose: 400.0 mg/kg/injection, schedule: Q04DX003 (ip), vehicle: Klucel (hydroxypropylcellulose) (HPC)) is reported as 1 of 6.

As for `COc1ccc(C(CC(=O)O)CC(=O)c2ccc(N(CCCl)CCCl)cc2)cc1` (centres undefined), the survivor count (dose: 400.0 mg/kg/injection, schedule: Q01DX001 (ip), vehicle: suspension in saline) is on record as 5 of 6.

With `C/C=C(\C)C(=O)OC1CCC2(C)C3CCC4C5(O)CC(O)C6(O)C(CN7CC(C)CCC7C6(C)O)C5(O)CC42OC13O` (centres undefined), the survivor count by setting is: (dose: 12.5 mg/kg/injection, schedule: Q01DX005 (ip), vehicle: Klucel (hydroxypropylcellulose) (HPC)) 0 of 5; (dose: 12.5 mg/kg/injection, schedule: Q01DX005 (ip), vehicle: saline) 0 of 5; (dose: 25.0 mg/kg/injection, schedule: Q01DX005 (ip), vehicle: Klucel (hydroxypropylcellulose) (HPC)) 0 of 5; (dose: 25.0 mg/kg/injection, schedule: Q01DX005 (ip), vehicle: saline) 0 of 5; under setting [2], 0 of 5; (dose: 50.0 mg/kg/injection, schedule: Q01DX005 (ip), vehicle: saline) 0 of 5. Also, the survivor count reads like this: under setting [3], 0 of 5; (dose: 100.0 mg/kg/injection, schedule: Q01DX005 (ip), vehicle: saline) 0 of 5; under setting [4], 0 of 5; (dose: 200.0 mg/kg/injection, schedule: Q01DX005 (ip), vehicle: saline) 0 of 5.

With `O=C1NC(c2ccccc2)N=C2Oc3ccccc3C=C12` (centres undefined), for the setting “dose: 6.25 mg/kg/injection, schedule: Q01DX009 (ip), vehicle: saline with Tween-80”, the survivor count is on record as 6 of 6. Besides, the T/C (dose: 25.0 mg/kg/injection, schedule: Q01DX009 (ip), vehicle: saline with Tween-80) is 130 % of control and the T/C under setting [6] was 125 % of control.

As to `BrP(Cc1ccccc1-c1ccccc1CP(Br)(c1ccccc1)(c1ccccc1)c1ccccc1)(c1ccccc1)(c1ccccc1)c1ccccc1`, the survivor count runs as follows: (dose: 12.5 mg/kg/injection, schedule: Q01DX009 (ip), vehicle: saline) 1 of 6; under setting [6], 0 of 6; (dose: 50.0 mg/kg/injection, schedule: Q01DX009 (ip), vehicle: saline) 0 of 6; under setting [7], 0 of 6; (dose: 200.0 mg/kg/injection, schedule: Q01DX009 (ip), vehicle: saline) 0 of 6.

On to `O=C(NCCCCCCCCCNC(=O)C12CC3CC(CC(C3)C1)C2)C12CC3CC(CC(C3)C1)C2`, for which the survivor count runs as follows: (dose: 50.0 mg/kg/injection, schedule: Q01DX005 (ip), vehicle: saline with Tween-80) 6 of 6; under setting [8], 6 of 6.

`COc1cc2c(c(OC)c1OC)-c1ccc(OC)c(=O)cc1[C@@H](N(C)C(C)=O)CC2`: the T/C by setting is: (dose: 0.07 mg/kg/injection, schedule: Q01DX009 (ip), vehicle: Klucel (hydroxypropylcellulose) (HPC)) 130 % of control; (dose: 0.15 mg/kg/injection, schedule: Q01DX009 (ip), vehicle: Klucel (hydroxypropylcellulose) (HPC)) 140 % of control. In addition, the survivor count is 6 of 6 (dose: 0.62 mg/kg/injection, schedule: Q01DX009 (ip), vehicle: Klucel (hydroxypropylcellulose) (HPC)); 4 of 6 (dose: 1.25 mg/kg/injection, schedule: Q01DX009 (ip), vehicle: Klucel (hydroxypropylcellulose) (HPC)); 1 of 6 (dose: 2.5 mg/kg/injection, schedule: Q01DX009 (ip), vehicle: Klucel (hydroxypropylcellulose) (HPC)); 0 of 6 (dose: 5.0 mg/kg/injection, schedule: Q01DX009 (ip), vehicle: Klucel (hydroxypropylcellulose) (HPC)).

In the case of `COc1cc(C2(C3C(CO)OC(=O)C3Cc3ccc4c(c3)OCO4)SCCCS2)cc(OC)c1OC` (centres undefined), where the note is “dose: 100.0 mg/kg/injection, schedule: Q04DX002 (ip), vehicle: saline with Tween-80”, the survivor count is 6 of 6.

Take `CCOC(=O)CNC(=O)c1cc2c(cn1)[nH]c1ccccc12`: under setting [1], the survivor count is reported as 6 of 6.

In the case of `CN(C)[C@@H]1C(=O)C(C(N)=O)=C(O)[C@@]2(O)C(=O)C3=C(O)c4c(O)ccc(Cl)c4[C@@](C)(O)[C@H]3C[C@@H]12.[Cl][Sb]([Cl])[Cl]`, the T/C (dose: 25.0 mg/kg/injection, schedule: Q01DX005 (ip), vehicle: saline with Tween-80) is 127 % of control. Also, the survivor count is, setting by setting: under setting [8], 1 of 6; (dose: 200.0 mg/kg/injection, schedule: Q01DX005 (ip), vehicle: saline with Tween-80) 0 of 6.

For the molecule `Cc1ccc2c(NCCCCCCCCNc3c4ccccc4nc4c(C)c(C)ccc34)c3ccccc3nc2c1C`, the T/C runs as follows: (dose: 0.63 mg/kg/injection, schedule: Q01DX009 (ip), vehicle: other) 137 % of control; (dose: 1.25 mg/kg/injection, schedule: Q01DX009 (ip), vehicle: other) 134 % of control; (dose: 2.5 mg/kg/injection, schedule: Q01DX009 (ip), vehicle: other) 141 and 148 % of control; (dose: 5.0 mg/kg/injection, schedule: Q01DX009 (ip), vehicle: other) 145 and 147 % of control. The survivor count runs as follows: (dose: 10.0 mg/kg/injection, schedule: Q01DX009 (ip), vehicle: other) 5 of 6; (dose: 20.0 mg/kg/injection, schedule: Q01DX009 (ip), vehicle: other) 0 of 6; (dose: 40.0 mg/kg/injection, schedule: Q01DX009 (ip), vehicle: other) 0 of 6.

For the molecule `C=C(C(=O)O)C(N)C(=O)O` (centres undefined), the survivor count (dose: 800.0 mg/kg/injection, schedule: Q01DX005 (ip), vehicle: saline) is 0 of 5.

Take `C[n+]1c(-c2ccccc2)c2ccccn2c1Sc1n2ccccc2c(-c2ccccc2)[n+]1C`: the survivor count is, setting by setting: (dose: 12.5 mg/kg/injection, schedule: Q01DX009 (ip), vehicle: Klucel (hydroxypropylcellulose) (HPC)) 0 of 6; (dose: 25.0 mg/kg/injection, schedule: Q01DX009 (ip), vehicle: Klucel (hydroxypropylcellulose) (HPC)) 0 of 6; (dose: 50.0 mg/kg/injection, schedule: Q01DX009 (ip), vehicle: Klucel (hydroxypropylcellulose) (HPC)) 0 of 6; (dose: 100.0 mg/kg/injection, schedule: Q01DX009 (ip), vehicle: Klucel (hydroxypropylcellulose) (HPC)) 0 of 6; under setting [5], 0 of 6.

Take `CC(NNC(=S)N1CCN(c2ccccn2)CC1)c1ccccn1` (centres undefined): the survivor count by setting is: under setting [3], 6 of 6; under setting [4], 2 of 6.

With `C/C(Cl)=C\C(=O)c1c(C)[nH]n(-c2ccccc2)c1=O`, under setting [4], the survivor count is reported as 0 of 6.

In the case of `COc1ccc(S(=O)(=O)NN)cc1`, the survivor count (dose: 400.0 mg/kg/injection, schedule: Q01DX009 (ip), vehicle: other) is 2 of 6.

Regarding `O=C1C(Cl)=C(NCCCN(CCO)CCO)C(=O)c2ccccc21`, the survivor count under setting [7] is 3 of 6 and 4 of 6.

As to `N=C(N)c1ccc2oc(/C=C/C=C/C=C/c3cc4cc(C(=N)N)ccc4o3)cc2c1`, the T/C (dose: 200.0 mg/kg/injection, schedule: Q04DX003 (ip), vehicle: saline) is 130 % of control and the T/C (dose: 400.0 mg/kg/injection, schedule: Q04DX003 (ip), vehicle: saline) was 137 % of control [5 of 6 alive].

Consider `O=Cc1ccco1`, for which the survivor count (dose: 400.0 mg/kg/injection, schedule: Q01DX009 (ip), vehicle: saline with Tween-80) was 3 of 6.
